The list shows a part of the results. Most values lie at the level of the controls, where differences are scatter.
compound: Cc1nc(Nc2ncc(C(=O)Nc3c(C)cccc3Cl)s2)cc(N2CCN(CCO)CC2)n1 [dasatinib]; experiment: log2 fold change of tryptic peptide abundance, ligand vs vehicle (limited proteolysis) (log2 ratio); higher = more trypsin-susceptible (destabilized); settings: ligand concentration: 5 uM; sample: K562 cleared lysate

By UniProt entry, the sequences of proteins in these tests, tags left out. Where a name states a change or a piece, a line headed by the entry shows the natural chain unless it says otherwise.
UniProt P21266: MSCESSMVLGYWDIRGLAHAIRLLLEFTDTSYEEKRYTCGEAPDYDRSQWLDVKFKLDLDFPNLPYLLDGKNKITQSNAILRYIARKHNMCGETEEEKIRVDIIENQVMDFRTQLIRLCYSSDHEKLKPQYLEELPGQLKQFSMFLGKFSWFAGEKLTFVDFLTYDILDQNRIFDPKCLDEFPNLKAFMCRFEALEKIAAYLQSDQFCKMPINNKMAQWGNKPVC
UniProt P23109: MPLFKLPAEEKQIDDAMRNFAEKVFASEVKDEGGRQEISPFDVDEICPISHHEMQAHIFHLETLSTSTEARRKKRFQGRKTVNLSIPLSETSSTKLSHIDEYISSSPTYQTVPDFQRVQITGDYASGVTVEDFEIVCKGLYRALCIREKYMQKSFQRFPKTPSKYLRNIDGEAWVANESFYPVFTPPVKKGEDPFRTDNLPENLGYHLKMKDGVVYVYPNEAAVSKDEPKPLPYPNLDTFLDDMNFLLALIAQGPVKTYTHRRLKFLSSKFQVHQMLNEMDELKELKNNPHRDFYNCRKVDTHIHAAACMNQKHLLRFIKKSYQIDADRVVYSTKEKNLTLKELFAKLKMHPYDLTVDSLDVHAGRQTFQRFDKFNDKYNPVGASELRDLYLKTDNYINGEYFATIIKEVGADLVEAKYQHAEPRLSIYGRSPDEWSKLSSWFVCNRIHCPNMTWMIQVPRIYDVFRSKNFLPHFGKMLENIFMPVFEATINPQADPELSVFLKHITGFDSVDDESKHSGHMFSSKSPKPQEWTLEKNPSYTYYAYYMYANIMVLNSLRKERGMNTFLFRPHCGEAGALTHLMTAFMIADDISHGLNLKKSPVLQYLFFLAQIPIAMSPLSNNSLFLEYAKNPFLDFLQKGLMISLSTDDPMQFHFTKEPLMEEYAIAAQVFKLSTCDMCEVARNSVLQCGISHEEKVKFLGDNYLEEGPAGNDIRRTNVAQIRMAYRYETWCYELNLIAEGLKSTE
UniProt P15884: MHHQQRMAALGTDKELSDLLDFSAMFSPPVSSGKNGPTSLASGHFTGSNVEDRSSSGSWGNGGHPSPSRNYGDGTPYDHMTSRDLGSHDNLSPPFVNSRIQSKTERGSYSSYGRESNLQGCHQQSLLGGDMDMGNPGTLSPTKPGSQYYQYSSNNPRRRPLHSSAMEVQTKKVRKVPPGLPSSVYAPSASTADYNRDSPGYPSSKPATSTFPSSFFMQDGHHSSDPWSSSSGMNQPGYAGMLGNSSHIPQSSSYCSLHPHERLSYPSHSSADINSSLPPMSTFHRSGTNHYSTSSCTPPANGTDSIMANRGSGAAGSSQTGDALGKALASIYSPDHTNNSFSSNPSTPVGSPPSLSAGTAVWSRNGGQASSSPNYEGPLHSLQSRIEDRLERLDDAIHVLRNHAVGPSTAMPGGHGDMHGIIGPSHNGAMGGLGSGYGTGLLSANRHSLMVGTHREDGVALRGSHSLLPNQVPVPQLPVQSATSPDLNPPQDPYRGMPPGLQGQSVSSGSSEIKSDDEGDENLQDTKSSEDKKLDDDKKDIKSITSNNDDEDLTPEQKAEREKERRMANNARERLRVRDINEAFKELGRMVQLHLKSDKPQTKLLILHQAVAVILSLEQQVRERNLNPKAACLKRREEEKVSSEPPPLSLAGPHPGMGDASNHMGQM
UniProt P21675, whole entry: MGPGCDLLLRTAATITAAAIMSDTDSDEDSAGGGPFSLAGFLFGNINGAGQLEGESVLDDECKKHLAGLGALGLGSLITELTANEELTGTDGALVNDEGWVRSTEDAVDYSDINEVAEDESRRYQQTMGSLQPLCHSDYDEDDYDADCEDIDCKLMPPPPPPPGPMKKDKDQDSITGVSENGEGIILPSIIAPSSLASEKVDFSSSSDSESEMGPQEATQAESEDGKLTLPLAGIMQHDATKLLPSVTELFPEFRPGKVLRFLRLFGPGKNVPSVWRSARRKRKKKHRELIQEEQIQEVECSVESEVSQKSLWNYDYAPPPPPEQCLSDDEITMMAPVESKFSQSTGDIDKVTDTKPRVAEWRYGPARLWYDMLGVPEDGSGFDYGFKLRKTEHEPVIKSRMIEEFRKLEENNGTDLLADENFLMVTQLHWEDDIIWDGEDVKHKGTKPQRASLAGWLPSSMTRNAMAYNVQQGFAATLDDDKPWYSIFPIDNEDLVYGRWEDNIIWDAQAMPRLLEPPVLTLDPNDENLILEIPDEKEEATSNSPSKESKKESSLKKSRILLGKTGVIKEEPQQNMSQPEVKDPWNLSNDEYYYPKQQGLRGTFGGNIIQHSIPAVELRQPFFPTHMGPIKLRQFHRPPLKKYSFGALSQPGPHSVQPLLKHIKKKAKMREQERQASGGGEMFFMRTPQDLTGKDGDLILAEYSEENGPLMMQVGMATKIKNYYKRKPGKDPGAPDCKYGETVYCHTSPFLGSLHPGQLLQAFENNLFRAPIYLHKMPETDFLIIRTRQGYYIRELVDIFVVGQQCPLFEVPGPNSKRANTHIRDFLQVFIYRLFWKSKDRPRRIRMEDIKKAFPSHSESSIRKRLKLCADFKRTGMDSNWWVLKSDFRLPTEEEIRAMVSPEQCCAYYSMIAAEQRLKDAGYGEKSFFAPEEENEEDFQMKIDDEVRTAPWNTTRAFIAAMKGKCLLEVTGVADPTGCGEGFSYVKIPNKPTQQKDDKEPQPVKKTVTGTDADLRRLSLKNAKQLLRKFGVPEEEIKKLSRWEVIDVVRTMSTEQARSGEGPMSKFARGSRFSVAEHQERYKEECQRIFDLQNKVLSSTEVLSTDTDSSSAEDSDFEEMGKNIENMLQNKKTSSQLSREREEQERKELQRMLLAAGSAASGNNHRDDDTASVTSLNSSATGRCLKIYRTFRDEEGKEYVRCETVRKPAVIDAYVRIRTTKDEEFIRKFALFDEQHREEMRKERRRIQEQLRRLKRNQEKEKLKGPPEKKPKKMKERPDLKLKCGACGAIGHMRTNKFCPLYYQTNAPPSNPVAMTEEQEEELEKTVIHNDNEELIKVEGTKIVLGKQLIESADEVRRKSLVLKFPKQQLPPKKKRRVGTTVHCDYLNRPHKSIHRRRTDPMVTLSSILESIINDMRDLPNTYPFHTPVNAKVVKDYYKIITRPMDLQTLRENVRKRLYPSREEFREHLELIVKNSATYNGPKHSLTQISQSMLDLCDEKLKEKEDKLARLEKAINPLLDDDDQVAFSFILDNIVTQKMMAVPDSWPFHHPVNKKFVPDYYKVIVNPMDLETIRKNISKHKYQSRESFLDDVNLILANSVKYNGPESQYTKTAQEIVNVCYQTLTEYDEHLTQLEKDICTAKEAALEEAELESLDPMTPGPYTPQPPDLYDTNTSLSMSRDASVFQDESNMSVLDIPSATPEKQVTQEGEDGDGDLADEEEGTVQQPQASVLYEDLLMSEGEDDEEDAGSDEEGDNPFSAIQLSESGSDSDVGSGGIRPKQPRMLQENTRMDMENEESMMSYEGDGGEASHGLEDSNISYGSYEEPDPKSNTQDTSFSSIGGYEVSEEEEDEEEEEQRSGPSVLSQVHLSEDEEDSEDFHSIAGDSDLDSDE
UniProt P24278: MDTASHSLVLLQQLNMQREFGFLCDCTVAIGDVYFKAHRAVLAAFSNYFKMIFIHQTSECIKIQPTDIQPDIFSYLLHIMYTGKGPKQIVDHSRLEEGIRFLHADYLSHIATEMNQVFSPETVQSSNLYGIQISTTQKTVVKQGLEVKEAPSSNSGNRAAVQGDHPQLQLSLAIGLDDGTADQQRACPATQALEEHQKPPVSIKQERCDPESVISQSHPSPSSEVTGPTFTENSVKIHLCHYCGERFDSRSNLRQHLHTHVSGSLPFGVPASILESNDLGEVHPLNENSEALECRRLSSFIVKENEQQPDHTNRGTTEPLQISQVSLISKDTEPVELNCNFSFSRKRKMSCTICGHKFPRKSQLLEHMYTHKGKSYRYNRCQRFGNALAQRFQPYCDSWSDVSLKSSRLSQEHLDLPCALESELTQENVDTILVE
UniProt P22570: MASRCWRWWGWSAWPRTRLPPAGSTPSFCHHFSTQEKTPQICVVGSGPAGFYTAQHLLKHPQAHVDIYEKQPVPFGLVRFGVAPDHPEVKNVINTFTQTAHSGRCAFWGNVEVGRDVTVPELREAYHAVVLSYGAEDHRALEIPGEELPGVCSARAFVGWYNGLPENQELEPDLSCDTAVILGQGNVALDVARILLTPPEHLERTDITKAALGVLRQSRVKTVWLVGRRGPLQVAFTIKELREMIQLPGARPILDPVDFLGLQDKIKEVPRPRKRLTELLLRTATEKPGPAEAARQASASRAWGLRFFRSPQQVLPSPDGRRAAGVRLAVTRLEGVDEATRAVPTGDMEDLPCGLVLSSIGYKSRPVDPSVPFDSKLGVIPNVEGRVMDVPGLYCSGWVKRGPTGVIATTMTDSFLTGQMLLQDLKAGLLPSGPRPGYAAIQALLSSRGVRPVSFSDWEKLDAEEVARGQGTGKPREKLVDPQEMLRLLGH
UniProt P20339: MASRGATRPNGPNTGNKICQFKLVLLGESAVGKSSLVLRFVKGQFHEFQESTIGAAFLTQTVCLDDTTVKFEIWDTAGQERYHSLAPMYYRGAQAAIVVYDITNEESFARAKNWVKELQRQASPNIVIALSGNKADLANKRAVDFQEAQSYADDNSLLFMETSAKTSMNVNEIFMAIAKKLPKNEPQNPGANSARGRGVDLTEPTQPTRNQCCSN
UniProt P19623: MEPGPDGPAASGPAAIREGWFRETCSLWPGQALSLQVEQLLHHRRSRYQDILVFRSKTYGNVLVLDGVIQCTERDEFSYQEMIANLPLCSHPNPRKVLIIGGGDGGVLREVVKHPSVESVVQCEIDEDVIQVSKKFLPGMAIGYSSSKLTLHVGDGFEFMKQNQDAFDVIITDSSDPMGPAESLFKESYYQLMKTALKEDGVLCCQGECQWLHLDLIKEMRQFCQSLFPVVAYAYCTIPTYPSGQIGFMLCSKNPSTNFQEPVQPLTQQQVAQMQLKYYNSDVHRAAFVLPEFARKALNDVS
UniProt P22670: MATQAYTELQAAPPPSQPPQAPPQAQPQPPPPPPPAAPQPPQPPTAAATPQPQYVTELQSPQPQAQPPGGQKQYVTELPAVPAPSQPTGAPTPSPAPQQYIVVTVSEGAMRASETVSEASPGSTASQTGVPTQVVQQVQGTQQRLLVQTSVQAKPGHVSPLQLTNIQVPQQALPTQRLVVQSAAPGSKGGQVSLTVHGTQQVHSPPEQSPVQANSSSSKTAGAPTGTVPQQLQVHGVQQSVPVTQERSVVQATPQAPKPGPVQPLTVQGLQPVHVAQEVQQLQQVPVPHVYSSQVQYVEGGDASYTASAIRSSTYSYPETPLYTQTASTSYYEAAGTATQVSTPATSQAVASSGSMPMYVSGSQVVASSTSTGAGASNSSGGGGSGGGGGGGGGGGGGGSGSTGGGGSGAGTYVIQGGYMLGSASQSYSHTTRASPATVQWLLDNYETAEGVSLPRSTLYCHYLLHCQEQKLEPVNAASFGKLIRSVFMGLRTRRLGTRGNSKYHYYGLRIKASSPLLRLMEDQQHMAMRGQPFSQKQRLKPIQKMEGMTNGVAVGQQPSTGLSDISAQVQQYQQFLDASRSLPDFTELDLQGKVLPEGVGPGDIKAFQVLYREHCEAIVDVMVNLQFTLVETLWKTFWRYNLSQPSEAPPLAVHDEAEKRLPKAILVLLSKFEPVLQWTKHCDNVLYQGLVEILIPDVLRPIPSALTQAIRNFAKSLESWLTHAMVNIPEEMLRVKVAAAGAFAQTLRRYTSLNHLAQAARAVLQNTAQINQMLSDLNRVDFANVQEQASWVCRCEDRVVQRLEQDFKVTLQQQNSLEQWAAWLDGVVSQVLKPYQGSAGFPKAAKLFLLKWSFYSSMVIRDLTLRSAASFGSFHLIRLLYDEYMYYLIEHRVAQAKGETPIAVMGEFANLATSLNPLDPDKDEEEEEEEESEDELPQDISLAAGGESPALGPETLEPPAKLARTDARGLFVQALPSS

Question: How did the log2 fold change turn out when “GSTM3 (peptide sequence: ITQSNAILR, peptide start residue: 74) (UniProt P21266)” was run?
Answer: 0.305

Question: How did the log2 fold change turn out when “UniProt P23109 (peptide sequence: KVDTHIHAAACMNQK, peptide start residue: 313)” was run?
Answer: -0.126

Question: With “TCF4 (peptide sequence: NGPTSLASGHFTGSNVEDR, peptide start residue: 35) (UniProt P15884)” as the target, how does the log2 fold change read?
Answer: 0.193

Question: For “TAF1 (peptide sequence: RVGTTVHCDYLNRPHK, peptide start residue: 1357) (UniProt P21675)”, which log2 fold change is on record?
Answer: -0.396

Question: For “UniProt P24278 (peptide sequence: EAPSSNSGNR, peptide start residue: 149)”, which log2 fold change is on record?
Answer: -0.333

Question: With “FDXR (peptide sequence: CAFWGNVEVGR, peptide start residue: 105) (UniProt P22570)” as the target, how does the log2 fold change read?
Answer: 0.114

Question: Which log2 fold change does the source give for “RAB5A (peptide sequence: GVDLTEPTQPTR, peptide start residue: 198) (UniProt P20339)” here?
Answer: 0.0549

Question: For “SRM (peptide sequence: YYNSDVHR, peptide start residue: 278) (UniProt P19623)”, which log2 fold change is on record?
Answer: 0.0841

Question: With “RFX1 (peptide sequence: VAAAGAFAQTLR, peptide start residue: 738) (UniProt P22670)” as the target, how does the log2 fold change read?
Answer: -0.234

Reference: the supplement of paper PMC12819154, “High-throughput peptide-centric local stability assay extends protein–ligand identification to membrane proteins, tissues and bacteria” (Nature Structural & Molecular Biology, 2025)
